Results are given in words; binding and its absence hold for the method and conditions named. Binding seen in cells or lysates may run through a third protein. Some entries that bind do so weakly or less than the wild type. Sequences can lack the tags named with a protein.

The target of this experiment is T1, FLAG-tagged MIWI (mouse), Q9JMB7.
T1 chain: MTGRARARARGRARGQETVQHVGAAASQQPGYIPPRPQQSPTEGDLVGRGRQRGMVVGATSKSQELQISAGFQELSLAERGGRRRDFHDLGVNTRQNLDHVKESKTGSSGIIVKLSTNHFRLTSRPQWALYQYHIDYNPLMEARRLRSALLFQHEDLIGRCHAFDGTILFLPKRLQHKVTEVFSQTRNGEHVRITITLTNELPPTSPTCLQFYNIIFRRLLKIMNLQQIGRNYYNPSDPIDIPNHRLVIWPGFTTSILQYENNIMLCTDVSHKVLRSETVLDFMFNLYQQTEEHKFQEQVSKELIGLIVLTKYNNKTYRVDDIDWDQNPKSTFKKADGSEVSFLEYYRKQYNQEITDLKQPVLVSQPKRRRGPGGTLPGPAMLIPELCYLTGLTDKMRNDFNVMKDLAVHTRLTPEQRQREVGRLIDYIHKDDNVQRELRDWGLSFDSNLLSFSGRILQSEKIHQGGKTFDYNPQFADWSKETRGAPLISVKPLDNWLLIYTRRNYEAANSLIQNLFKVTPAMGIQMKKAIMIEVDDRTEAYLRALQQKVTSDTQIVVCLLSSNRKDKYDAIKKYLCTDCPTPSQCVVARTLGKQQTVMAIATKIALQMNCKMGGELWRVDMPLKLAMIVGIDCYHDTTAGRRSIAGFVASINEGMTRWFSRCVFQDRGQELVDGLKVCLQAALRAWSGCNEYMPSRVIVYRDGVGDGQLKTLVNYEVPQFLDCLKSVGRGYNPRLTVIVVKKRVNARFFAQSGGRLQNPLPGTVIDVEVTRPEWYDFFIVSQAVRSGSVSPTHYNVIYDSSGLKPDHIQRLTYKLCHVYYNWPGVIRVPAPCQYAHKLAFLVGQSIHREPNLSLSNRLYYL
The experiment in a line: co-IP; HEK293T cells co-transfected with FLAG-tagged MIWI or MIWI^RK and GFP-tagged proteins; after 48 h immunoprecipitation with anti-FLAG M2 Affinity Gel; Western blotting with anti-GFP and anti-FLAG. The conditions noted are these: remark: other sources report otherwise.

B1: GFP-tagged PNLDC1, B2RXZ1 1-531 (protein)
chain: MDVGADEFEQSLPLLQELVAGADFVGLDIEFTGLRSNLSRPQQISLFDLPSEWYLKTRQSVQQFTICQIGLSMFSSIEGESNKYVAHSCNFFLFPTTFGILDSEFSFQASSVQFLNQYGFDYNKFLKNGIPYMNEEQEKKIKHSILRGNWRVRSSLDKDQIKVVIDKVTQWLDLAEEGDQMTLPGIAGFQAFEVQLVLRQALPNIWTVLKEEWVIVKKVSQPQRWYLEHASCDQVSCWKEQILLSARGFSVFFQMLVKAQKPLVGHNMMMDLLHLHEKFFRPLPESYDQFKQNIHSLFPVLIDTKNVTKDIWKELRFPRVSNLLEVYEVLSSNLNPTKDSGPVIIHARQCKKYAETKCPHEAAYDAFLCGSVLLKVAHLLLQRVHGNGAVHEPAFPQYLDVLAPYVNQVNLIRAGVPKINFSGPDYPSIRPPVLILTVKRWPGVSEQQVYREFQNLCKFDVRRFTRSQFLLLTNKFKDARSVLKEYRNHPTLQVSLYRSWRHSPNITCLLQVCSIVTTWAMIAFLLGRPMP
As for B1, the binding result is reported as “binds”.

(Values after article PMC10681313.)
